From PubChem BioAssay AID254 (DTP/NCI, 2004)
The list does not hold the whole screen: its compounds were picked by chemical class. Not every dose and run of a compound is shown. T/C gives the treated animals as a percentage of the vehicle group. For survival time, this PubChem deposit counts one and a half times the control or more as active, and values a quarter to a half above the control carry no call in these data; other NCI protocols may use other cut-offs. Some entries show no survivor count and are marked so; the dose need not have been tolerated. Schedules are NCI's codes, read here as Q, the interval in days (D) or hours (H), X, the number of doses. Some schedule codes hold Z or #, which are not explained here.

Tested on: L1210 leukemia iv in BDF1 mice, survival T/C
Assay: NCI In Vivo Anticancer Drug Screen. Data for tumor model L1210 Leukemia (intravenous) in B6D2F1 (BDF1) mice
Details: T/C endpoint: mean survival time, vehicle: saline, higher T/C = longer survival
Description: The antitumor activity of compounds was measured in mice bearing transplantable tumors. Survival or tumor size were measured and the results are expressed as the measurement made in the treated group (T) divided by the measurement made in the vehicle treated control group (C). The tumor model used in this assay is L1210 Leukemia (intravenous) in B6D2F1 (BDF1) mice

Q: For `NC1CCCCC1.NP(=O)(O)N(CCCl)CCCl`, which T/C (dose: 13.0 mg/kg/injection, schedule: Q## X007 (ip)) is on record?
A: Its T/C is 154 % of control [survivor count not shown].

Q: And the T/C (dose: 20.0 mg/kg/injection, schedule: Q## X007 (ip))?
A: The T/C was 194 % of control [survivor count not shown].

Q: What about the T/C (dose: 30.0 mg/kg/injection, schedule: Q## X007 (ip)) of the same compound?
A: The T/C was 244 % of control [survivor count not shown].

Q: And the T/C (dose: 35.0 mg/kg/injection, schedule: Q## X007 (ip))?
A: The T/C was 238 % of control [survivor count not shown].

Q: What about the T/C (dose: 40.0 mg/kg/injection, schedule: Q## X007 (ip)) of the same compound?
A: The T/C was 184 % of control [survivor count not shown].

Q: What about the T/C (dose: 92.0 mg/kg/injection, schedule: Q01DX001 (ip)) of the same compound?
A: Its T/C is 172 % of control [survivor count not shown].

Q: And the T/C (dose: 140.0 mg/kg/injection, schedule: Q01DX001 (ip))?
A: The T/C was 208 % of control [survivor count not shown].

Q: What about the T/C (dose: 210.0 mg/kg/injection, schedule: Q01DX001 (ip)) of the same compound?
A: The T/C was 192 % of control [survivor count not shown].

Q: And the T/C (dose: 245.0 mg/kg/injection, schedule: Q01DX001 (ip))?
A: Its T/C is 156 % of control [survivor count not shown].

Q: And the T/C (dose: 280.0 mg/kg/injection, schedule: Q01DX001 (ip))?
A: Its T/C is 132 % of control [survivor count not shown].
